Publication PMC5030711 (Scientific Reports, 2016)
HELM strings list residues between dots; [ac] is acetyl, [am] amide, other brackets name non-standard units.

Experiment: peptide made by a vendor
Conditions: whole synthesis

PEPTIDE1{[HYNIC].S.F.S.I.I.H.T.P.I.L.P.L}$$$$V2.0
purity (crude or final not stated): 95%
